Source: the supplement of paper PMC3334620
The full ranking holds about 33,000 sequences; the median of “E-score (-0.5 to 0.5)” is about -0.015, and the highest 2% start at about 0.3. The list shows a part of the results.

Target: T1, Abf1 (UniProt P14164)
T1 sequence: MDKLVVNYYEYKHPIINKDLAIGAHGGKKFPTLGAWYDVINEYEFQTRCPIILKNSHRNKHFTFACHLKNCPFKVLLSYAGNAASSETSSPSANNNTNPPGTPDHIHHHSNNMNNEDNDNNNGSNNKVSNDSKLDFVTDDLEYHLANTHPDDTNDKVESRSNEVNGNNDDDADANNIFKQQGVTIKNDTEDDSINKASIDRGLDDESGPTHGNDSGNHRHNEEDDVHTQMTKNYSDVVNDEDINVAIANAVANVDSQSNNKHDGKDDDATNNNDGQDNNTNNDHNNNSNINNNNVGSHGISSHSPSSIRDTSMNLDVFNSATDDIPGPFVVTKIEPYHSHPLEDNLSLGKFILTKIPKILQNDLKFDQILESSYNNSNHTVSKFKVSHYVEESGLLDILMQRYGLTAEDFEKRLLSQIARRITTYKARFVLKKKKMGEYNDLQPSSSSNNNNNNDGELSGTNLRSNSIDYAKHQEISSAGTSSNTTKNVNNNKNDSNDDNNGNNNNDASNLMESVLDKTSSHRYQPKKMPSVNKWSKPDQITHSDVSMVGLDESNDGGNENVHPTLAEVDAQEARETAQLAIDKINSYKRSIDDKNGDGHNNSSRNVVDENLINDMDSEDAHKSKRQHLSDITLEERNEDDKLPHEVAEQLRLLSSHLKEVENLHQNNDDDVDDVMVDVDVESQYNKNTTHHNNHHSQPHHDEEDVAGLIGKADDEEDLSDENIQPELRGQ
Experiment: PBM E-score (8-mer binding enrichment) (E-score (-0.5 to 0.5)); higher = stronger / more preferred TF binding
Conditions: protein concentration: 200 nM; construct: GST-full length
In short: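 PURExpress in vitro transcription/translation supplied GST-tagged yeast transcription factors, either full-length or DNA-binding domain. Applied at about 100-200 nM to universal all-10-mer Agilent arrays double-stranded by primer extension, the bound protein was detected with fluorescent anti-GST. E-scores, modified Wilcoxon-Mann-Whitney statistics, were given by the Universal PBM Analysis Suite to ungapped eight-base words pooled with their reverse complements after masliner normalisation.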

Row | Sequence | PBM E-score
1 | AGTGTCTG | -0.162
2 | CCGGCTTC | -0.166
3 | GAGGGTGC | -0.329
4 | AAGTTGAT | 0.0854
5 | AAGCTTCG | 0.00449
6 | ACTTATTC | -0.00412
7 | ACCCGGTC | -0.081
8 | CGGCCAAA | 0.00205
9 | TCACGTAA | 0.0101
10 | GTCGATTA | 0.0468
11 | CTGTTAAG | -0.0937
12 | CACCGCTA | -0.0615
13 | ATTGTTAA | -0.00049
14 | AGCAAGCA | -0.137
15 | GCTTGACA | -0.163
16 | AACTGTGT | 0.064
17 | GCCCCCGC | -0.435
18 | ACGGCCAT | -0.0106
19 | GACGCTGA | -0.0836
20 | TCCATGAA | 0.0902
21 | CGAGCAAC | 0.0494
22 | GGTTACCA | 0.104
23 | ATTGGCAA | 0.11
24 | CGTCGGGA | 0.165
25 | CTGGTCGC | -0.14

Row | Sequence | PBM E-score
26 | GTAGCGGA | 0.0389
27 | ATCACGCA | 0.272
28 | AAAGCGCT | 0.115
29 | TAGAGGAA | -0.0779
30 | ACGCGGAT | -0.024
31 | ATTTCCCG | 0.149
32 | AAAGGTCT | 0.0132
33 | AGAGTGTA | -0.136
34 | CCTGTTAA | 0.00201
35 | ATAGAACA | -0.0151
36 | ATGTACTA | 0.207
37 | CCGTGTTA | 0.119
38 | ACCTTTAG | 0.00374
39 | ACTAAGGC | -0.0948
40 | CGTCACTA | 0.374
41 | CCAATCAG | -0.243
42 | AGCGGCAG | -0.113
43 | AGACGCCG | -0.0261
44 | GAAGCCGA | -0.137
45 | TAGGGATA | 0.0598
46 | CAACTGAG | 0.0284
47 | GACAACCA | 0.125
48 | CGGTCAAC | 0.0203
49 | TAGCGCCA | -0.00189
50 | ACTTCAGA | -0.00535

Row | Sequence | PBM E-score
51 | CCCTCCGC | -0.354
52 | AATACACA | 0.081
53 | GGCATCGA | -0.0852
54 | CGGCCCAC | -0.208
55 | GGAATAAC | -0.278
56 | ATGTGGAA | 0.0581
57 | CCTCTTAG | 0.11
58 | CTGGTTAA | 0.108
59 | CTCGTACA | 0.342
60 | TAGTTTGA | 0.219
61 | CACTCGCG | 0.0197
62 | TATTCACA | 0.16
63 | GCTGGGCC | -0.252
64 | CGGGAATC | -0.14
65 | AGACGAGG | -0.0718
66 | CCTCCTTA | -0.129
67 | AGTAATTA | 0.0132
68 | GAGAAACC | -0.13
69 | ACCTATGG | -0.00968
70 | CTATCCCA | -0.119
71 | AACCGGTG | 0.00684
72 | ACTGTTCG | 0.0935
73 | ATAACGCC | -0.0918
74 | ATCGCGTA | 0.0704
75 | AACTCTTC | -0.0922

Row | Sequence | PBM E-score
76 | TAAACGTA | 0.284
77 | ACGTGTGA | 0.213
78 | GCGATTAA | 0.111
79 | CGTGTCAA | 0.0475
80 | CAGTCCCG | -0.263
81 | GAGGCGTA | -0.0924
82 | CGTGCTAG | -0.0144
83 | AGTAGCTG | -0.21
84 | AACTATAT | 0.205
85 | AAGATTTC | -0.00459
86 | ACCATTTG | -0.049
87 | ATCATCTG | 0.127
88 | AGCTTGAA | -0.106
89 | GAACTAAA | -0.112
90 | TCAGACCA | -0.0912
91 | CCTTATGA | 0.0433
92 | GGAGCGCA | -0.284
93 | CAAGTTAC | 0.0862
94 | CCTTTCAG | -0.0364
95 | ATAGGCGG | -0.0983
96 | GGACAGAC | -0.166
97 | CGCGACAC | 0.0401
98 | ATTTTACC | 0.11
99 | CGCTTCCA | -0.0645
100 | GTTTGGAA | 0.0998

Row | Sequence | PBM E-score
101 | CGTGAGCA | 0.078
102 | CAATACCG | -0.124
103 | ACTTCTCA | 0.119
104 | GACAGTGC | 0.169
105 | AGTGCGTA | -0.179
106 | GAAGGATC | -0.131
107 | ACCACGTA | 0.155
108 | CGAGGAAG | -0.187
109 | CCTTAACG | 0.0166
110 | CACCACCA | -0.164
111 | AAATGCGG | 0.146
112 | GCCACATA | 0.00455
113 | CGCTTACC | -0.0573
114 | GTTTGAAA | 0.187
115 | ACAATGTG | -0.00828
116 | ACATGCGT | -0.0424
117 | CCATTGGA | -0.21
118 | GATGTGTA | -0.0324
119 | CGACGGAC | 0.151
120 | AAAATGAA | 0.056
121 | CATTTCGC | 0.135
122 | ATCAAGCG | 0.0274
123 | CTTTGCGC | -0.134
124 | AGATCTTA | 0.0519
125 | GCGCATTA | 0.0364

Row | Sequence | PBM E-score
126 | CGTGATGC | 0.0552
127 | CGGGATGC | -0.0802
128 | CCGACGGC | 0.146
129 | CTTGCGCA | 0.0489
130 | GTTACTCA | 0.0462
131 | AATAAGCG | -0.0622
132 | CCCGTAGC | -0.122
133 | CTACACAC | 0.0205
134 | AATTCACA | -0.0127
135 | CAACGTTA | 0.0769
136 | GACGGGGC | -0.13
137 | TTACTAAA | 0.19
138 | CCTAGGCG | -0.139
139 | CGAAGTGC | 0.188
140 | GTATTCCA | 0.0971
141 | CGTGCAGC | 0.1
142 | ACACAACC | -0.0873
143 | GTCAGAAA | 0.125
144 | CATGATTC | -0.0658
145 | AATAAAAC | 0.0985
146 | GGCAAGTA | -0.0208
147 | ATAATGGA | 0.147
148 | ACATGCTG | -0.0137
149 | ATACTATG | 0.106
150 | ACCCATTC | -0.0423

A different layout for part of the listing above.
Row	Sequence	PBM E-score
132	CCCGTAGC	-0.122
138	CCTAGGCG	-0.139
143	GTCAGAAA	0.125
150	ACCCATTC	-0.0423

Next records

Row | Sequence | PBM E-score
151 | GGGGGCCA | -0.462
152 | ATTACTAA | 0.0647
153 | AGAGTTCA | -0.208
154 | CATTTGGA | -0.0277
155 | CGGGGGGA | -0.248
156 | GACCCGTC | -0.0995
157 | AGGGCTGG | -0.194
158 | AACATATA | -0.0343
159 | CTAAGTTC | -0.0944
160 | AATGTCTA | 0.054
161 | TTGCAAAA | 0.0573
162 | GGAGATCC | -0.0797
163 | AATGTTAA | -0.124
164 | AGACCGCA | -0.104
165 | ACTGCGAT | -0.0827
166 | CAAGCAAG | -0.0699
167 | CACCGACC | 0.00484
168 | GGCCTCGA | -0.172
169 | CCTGGCAA | -0.325
170 | AGCTCCAA | 0.0671
171 | TCAAGGGA | -0.21
172 | AGGCGCGA | -0.0631

Entries 166 through 169 of the list above:
Row | Sequence | PBM E-score
166 | CAAGCAAG | -0.0699
167 | CACCGACC | 0.00484
168 | GGCCTCGA | -0.172
169 | CCTGGCAA | -0.325
